# Laboratory results reported in the supplement of paper PMC4604168 (melanoma cell lines).
# The list shows a part of the results. Many values rest on one well or one pass, so single values are uncertain.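 Imaging used 1,536-well plates; nuclei positive for cleaved PARP by antibody were divided by total DNA-stained nuclei to yield the apoptosis fraction. Doses for screening kept most cells viable, and cell lines differ markedly in resting and induced cleaved-PARP levels.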
# Test system: COLO800
# Assay: cleaved PARP positive nuclei fraction relative to DMSO control; melanoma cells; higher = more apoptosis
# Conditions: library dose: low library concentration; 72 h
row,Structure (SMILES),cleaved PARP positive nuclei fraction
1,"Cc1cn(-c2cc(NC(=O)c3ccc(C)c(Nc4nccc(-c5cccnc5)n4)c3)cc(C(F)(F)F)c2)cn1 [nilotinib] + CNC(=O)c1cc(Oc2ccc(NC(=O)Nc3ccc(Cl)c(C(F)(F)F)c3)cc2)ccn1 [sorafenib] (first compound 0.2 µM, partner dose 0.4 µM)",46.1%
2,"O=c1[nH]nc(Sc2ncc([N+](=O)[O-])s2)n1-c1ccc2c(c1)OCCO2 + Nc1nc(F)nc2c1ncn2[C@@H]1O[C@H](CO)[C@@H](O)[C@@H]1O [fludarabine] (first compound 0.2 µM, partner dose 0.2 µM)",86.6%
3,"Cc1cn(-c2cc(NC(=O)c3ccc(C)c(Nc4nccc(-c5cccnc5)n4)c3)cc(C(F)(F)F)c2)cn1 [nilotinib] + CCCS(=O)(=O)Nc1ccc(F)c(C(=O)c2c[nH]c3ncc(Cl)cc23)c1F [PLX4720] (first compound 0.2 µM, partner dose 0.08 µM)",121%
4,"O=C(Nc1cc(C(F)(F)F)cc(C(F)(F)F)c1)c1cc(Cl)ccc1O + CC(=O)O[C@@]12CO[C@@H]1C[C@H](O)[C@@]1(C)C(=O)[C@H](O)C3=C(C)[C@@H](OC(=O)[C@H](O)[C@@H](NC(=O)OC(C)(C)C)c4ccccc4)C[C@@](O)([C@@H](OC(=O)c4ccccc4)[C@H]21)C3(C)C [Docetaxel] (first compound 0.016 µM, partner dose 0.0001 µM)",355%
5,"O=C(/C=C/c1cccnc1)NCCCCC1CCN(C(=O)c2ccccc2)CC1 + Nc1nc(F)nc2c1ncn2[C@@H]1O[C@H](CO)[C@@H](O)[C@@H]1O [fludarabine] (first compound 0.01 µM, partner dose 0.2 µM)",67%
6,"N#CC[C@H](C1CCCC1)n1cc(-c2ncnc3[nH]ccc23)cn1 [ruxolitinib] + NC1(c2ccc(-c3nc4ccn5c(=O)[nH]nc5c4cc3-c3ccccc3)cc2)CCC1 [MK2206] (first compound 1 µM, partner dose 0.4 µM)",31.1%
7,"CCCCCCCCCCCCCCCCCCOP(=O)([O-])OC1CC[N+](C)(C)CC1 [Perifosine] + Cn1c(=O)n(-c2ccc(C(C)(C)C#N)cc2)c2c3cc(-c4cnc5ccccc5c4)ccc3ncc21 [NVP-BEZ235] (first compound 0.4 µM, partner dose 0.004 µM)",64.6%
8,"CC[C@]1(O)C[C@H]2CN(CCc3c([nH]c4ccccc34)[C@@](C(=O)OC)(c3cc4c(cc3OC)N(C=O)[C@H]3[C@@](O)(C(=O)OC)[C@H](OC(C)=O)[C@]5(CC)C=CCN6CC[C@]43[C@@H]65)C2)C1 [vincristine] + CC(=O)O[C@@]12CO[C@@H]1C[C@H](O)[C@@]1(C)C(=O)[C@H](O)C3=C(C)[C@@H](OC(=O)[C@H](O)[C@@H](NC(=O)OC(C)(C)C)c4ccccc4)C[C@@](O)([C@@H](OC(=O)c4ccccc4)[C@H]21)C3(C)C [Docetaxel] (first compound 0.0001 µM, partner dose 0.0001 µM)",235%
9,"CCCCCCCCCCCCCCCCCCOP(=O)([O-])OC1CC[N+](C)(C)CC1 [Perifosine] + CO[C@H]1C[C@@H]2CC[C@@H](C)[C@@](O)(O2)C(=O)C(=O)N2CCCC[C@H]2C(=O)O[C@H]([C@H](C)C[C@@H]2CC[C@@H](OCCO)[C@H](OC)C2)CC(=O)[C@H](C)/C=C(\C)[C@@H](O)[C@@H](OC)C(=O)[C@H](C)C[C@H](C)/C=C/C=C/C=C/1C [everolimus] (first compound 0.4 µM, partner dose 0.02 µM)",98.1%
10,"Cc1ccc(Nc2nccc(N(C)c3ccc4c(C)n(C)nc4c3)n2)cc1S(N)(=O)=O [Pazopanib] + CS(=O)(=O)CCNCc1ccc(-c2ccc3ncnc(Nc4ccc(OCc5cccc(F)c5)c(Cl)c4)c3c2)o1 [lapatinib] (first compound 0.4 µM, partner dose 0.8 µM)",116%
11,"N#CC[C@H](C1CCCC1)n1cc(-c2ncnc3[nH]ccc23)cn1 [ruxolitinib] + C[C@]1(c2nc3c(C(N)=O)cccc3[nH]2)CCCN1 [Veliparib] (first compound 1 µM, partner dose 1.4 µM)",113%
12,"CC[C@]1(O)C[C@H]2CN(CCc3c([nH]c4ccccc34)[C@@](C(=O)OC)(c3cc4c(cc3OC)N(C=O)[C@H]3[C@@](O)(C(=O)OC)[C@H](OC(C)=O)[C@]5(CC)C=CCN6CC[C@]43[C@@H]65)C2)C1 [vincristine] + Cn1cnc2c(F)c(Nc3ccc(Br)cc3Cl)c(C(=O)NOCCO)cc21 [selumetinib] (first compound 0.0001 µM, partner dose 0.015 µM)",119%
13,"CC[C@]1(O)C[C@H]2CN(CCc3c([nH]c4ccccc34)[C@@](C(=O)OC)(c3cc4c(cc3OC)N(C=O)[C@H]3[C@@](O)(C(=O)OC)[C@H](OC(C)=O)[C@]5(CC)C=CCN6CC[C@]43[C@@H]65)C2)C1 [vincristine] + Nc1cccc2c1CN(C1CCC(=O)NC1=O)C2=O [lenalidomide] (first compound 0.0001 µM, partner dose 1 µM)",77.9%
14,"N#CC[C@H](C1CCCC1)n1cc(-c2ncnc3[nH]ccc23)cn1 [ruxolitinib] + CCN(CC)CCNC(=O)c1c(C)[nH]c(/C=C2\C(=O)Nc3ccc(F)cc32)c1C [sunitinib] (first compound 1 µM, partner dose 0.4 µM)",59.1%
15,"COc1cc([C@@H]2c3cc4c(cc3[C@@H](O[C@@H]3O[C@@H]5CO[C@@H](C)O[C@H]5[C@H](O)[C@H]3O)[C@H]3COC(=O)[C@H]23)OCO4)cc(OC)c1O [etoposide] + O=C(/C=C/c1cccnc1)NCCCCC1CCN(C(=O)c2ccccc2)CC1 [FK866] (first compound 0.02 µM, partner dose 0.01 µM)",204%
16,"O=c1[nH]nc(Sc2ncc([N+](=O)[O-])s2)n1-c1ccc2c(c1)OCCO2 + CC(=O)O[C@@]12CO[C@@H]1C[C@H](O)[C@@]1(C)C(=O)[C@H](O)C3=C(C)[C@@H](OC(=O)[C@H](O)[C@@H](NC(=O)OC(C)(C)C)c4ccccc4)C[C@@](O)([C@@H](OC(=O)c4ccccc4)[C@H]21)C3(C)C [Docetaxel] (first compound 0.2 µM, partner dose 0.0001 µM)",174%
17,"N#CC[C@H](C1CCCC1)n1cc(-c2ncnc3[nH]ccc23)cn1 [ruxolitinib] + NC(=O)c1ccc(N(C(N)=O)c2c(F)cccc2F)nc1-c1ccc(F)cc1F [VX702] (first compound 1 µM, partner dose 0.4 µM)",67.1%
18,"N#CC[C@H](C1CCCC1)n1cc(-c2ncnc3[nH]ccc23)cn1 [ruxolitinib] + Cn1sc(=O)n(Cc2ccccc2)c1=O [TDZD-8] (first compound 1 µM, partner dose 0.4 µM)",66.7%
19,"CC[C@]1(O)C[C@H]2CN(CCc3c([nH]c4ccccc34)[C@@](C(=O)OC)(c3cc4c(cc3OC)N(C=O)[C@H]3[C@@](O)(C(=O)OC)[C@H](OC(C)=O)[C@]5(CC)C=CCN6CC[C@]43[C@@H]65)C2)C1 [vincristine] + C[C@@H](Oc1cc(-c2cnn(C3CCNCC3)c2)cnc1N)c1c(Cl)ccc(F)c1Cl [Crizotinib] (first compound 0.0001 µM, partner dose 0.2 µM)",110%
20,"O=c1[nH]nc(Sc2ncc([N+](=O)[O-])s2)n1-c1ccc2c(c1)OCCO2 + CN(c1ncccc1CNc1nc(Nc2ccc3c(c2)CC(=O)N3)ncc1C(F)(F)F)S(C)(=O)=O [PF562271] (first compound 0.2 µM, partner dose 0.08 µM)",60.2%
21,"O=C(Nc1cc(C(F)(F)F)cc(C(F)(F)F)c1)c1cc(Cl)ccc1O + Nc1ccn([C@@H]2O[C@H](CO)[C@@H](O)C2(F)F)c(=O)n1 [gemcitabine] (first compound 0.016 µM, partner dose 0.0004 µM)",73%
22,"COc1cc([C@@H]2c3cc4c(cc3[C@@H](O[C@@H]3O[C@@H]5CO[C@@H](C)O[C@H]5[C@H](O)[C@H]3O)[C@H]3COC(=O)[C@H]23)OCO4)cc(OC)c1O [etoposide] + CCCS(=O)(=O)Nc1ccc(F)c(C(=O)c2c[nH]c3ncc(Cl)cc23)c1F [PLX4720] (first compound 0.02 µM, partner dose 0.08 µM)",93.5%
23,"CC[C@]1(O)C[C@H]2CN(CCc3c([nH]c4ccccc34)[C@@](C(=O)OC)(c3cc4c(cc3OC)N(C=O)[C@H]3[C@@](O)(C(=O)OC)[C@H](OC(C)=O)[C@]5(CC)C=CCN6CC[C@]43[C@@H]65)C2)C1 [vincristine] + Cn1c(=O)n(-c2ccc(C(C)(C)C#N)cc2)c2c3cc(-c4cnc5ccccc5c4)ccc3ncc21 [NVP-BEZ235] (first compound 0.0001 µM, partner dose 0.004 µM)",103%
24,"COc1cc([C@@H]2c3cc4c(cc3[C@@H](O[C@@H]3O[C@@H]5CO[C@@H](C)O[C@H]5[C@H](O)[C@H]3O)[C@H]3COC(=O)[C@H]23)OCO4)cc(OC)c1O [etoposide] + CN(c1ncccc1CNc1nc(Nc2ccc3c(c2)CC(=O)N3)ncc1C(F)(F)F)S(C)(=O)=O [PF562271] (first compound 0.02 µM, partner dose 0.08 µM)",115%

# Two entries picked at random from the list so far, as already listed:
row,Structure (SMILES),cleaved PARP positive nuclei fraction
2,"O=c1[nH]nc(Sc2ncc([N+](=O)[O-])s2)n1-c1ccc2c(c1)OCCO2 + Nc1nc(F)nc2c1ncn2[C@@H]1O[C@H](CO)[C@@H](O)[C@@H]1O [fludarabine] (first compound 0.2 µM, partner dose 0.2 µM)",86.6%
22,"COc1cc([C@@H]2c3cc4c(cc3[C@@H](O[C@@H]3O[C@@H]5CO[C@@H](C)O[C@H]5[C@H](O)[C@H]3O)[C@H]3COC(=O)[C@H]23)OCO4)cc(OC)c1O [etoposide] + CCCS(=O)(=O)Nc1ccc(F)c(C(=O)c2c[nH]c3ncc(Cl)cc23)c1F [PLX4720] (first compound 0.02 µM, partner dose 0.08 µM)",93.5%
